Values quoted from earlier work as cited in patent publication US20070225370A1, “Nutritional Compositions and Methods” (priority 2006, published 2007).
For at least one compound, name, drawing or mass did not settle the structure.

Protein sequences, listed by entry. Tags and fused reporters are not part of them. Lines headed by an entry give the natural chain unless they say otherwise; changes in a name come on top.
UniProt O60427: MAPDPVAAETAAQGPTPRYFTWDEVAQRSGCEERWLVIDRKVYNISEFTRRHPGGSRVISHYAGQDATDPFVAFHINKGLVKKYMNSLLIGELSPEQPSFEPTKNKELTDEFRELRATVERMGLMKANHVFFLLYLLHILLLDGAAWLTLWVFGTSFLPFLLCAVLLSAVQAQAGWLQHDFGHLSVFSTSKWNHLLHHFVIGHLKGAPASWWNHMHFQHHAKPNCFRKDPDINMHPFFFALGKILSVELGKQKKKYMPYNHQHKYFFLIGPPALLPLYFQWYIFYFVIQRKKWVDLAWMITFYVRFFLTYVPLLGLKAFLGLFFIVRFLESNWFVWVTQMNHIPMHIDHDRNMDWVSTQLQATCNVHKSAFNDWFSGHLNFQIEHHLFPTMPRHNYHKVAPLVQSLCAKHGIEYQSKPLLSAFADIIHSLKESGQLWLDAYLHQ

Biological target: T1, delta-5-desaturase (Homo sapiens, UniProt O60427)
T1 construct: AA is made in vivo from DGLA by an enzymatic reaction of delta-5 desaturase; host or cells: human subjects (dietary supplementation study, Barham et al. 2000)
Conditions: EPA added to GLA; humans

CC/C=C\C/C=C\C/C=C\C/C=C\C/C=C\CCCC(=O)O [EPA, Eicosapentaenoic acid]
effect on delta-5-desaturase activity, the terminal enzymatic step in AA synthesis: inhibits delta-5-desaturase activity
